According to PubChem BioAssay AID588497 (NMMLSC, 2011):
The campaign covered roughly 360,000 compounds. About 780 (0.22%) were called active. Inconclusive results, whose numbers are uncertain, are shown with a selection of clear calls. No stated cut-off is given here; in the data, active means inhibition above about 35% (passing the limit was not always enough); inconclusive means no clear call, values can overlap the other calls.

tested on: Botulinum neurotoxin type F light chain protease (Clostridium botulinum); test: BoNT/F light chain protease inhibitors, primary screen, biochemical, flow cytometry, MLPCN library (AID 588497); conditions: Multiplex microsphere protease cleavage assay, at 10 µM, active compounds read high; further: plate controls were buffer without enzyme for full effect and enzyme alone for no effect

Compound	inhibition
COc1cccc(C(O)c2nc(/C=C/c3ccccc3)cs2)c1 (configuration not stated)	inactive: 2%
CCC1(C)Cc2ccccc2-c2nc(NCCO)n(-c3ccc(C)cc3)c(=O)c21 (configuration not stated)	inactive: -5.6%
Nc1nc2ccccc2n1CCOc1ccc(F)cc1	active: 42.2%
O=C(c1ccccc1Cl)N1CCN(c2ncccn2)CC1	inactive: -1.7%
COc1cccc(N/C=C/C(=O)c2ccc(C)cc2)c1	inconclusive: -18.3%
COc1ccc(C(C)=O)cc1COc1nc(C)nc2ccccc12	inactive: -4.8%
CC1=CCC(COC(=O)Nc2ccccc2)CC1 (configuration not stated)	inconclusive: -3.9%
CCOC(=O)CSc1nc(-c2ccccc2)nc2ccc(F)cc12	inactive: -14.6%
COc1cc(OC)cc(C(=O)NCC(=O)OCc2cc(=O)oc3cc(OC)ccc23)c1	inactive: 0%
CSc1sc(C(=O)NCC2CC2)c2c1S(=O)(=O)N(C)c1ccccc1-2	inconclusive: -20.6%
O=C(Nc1ccccc1)Nc1nc(-c2ccccc2)cs1	inconclusive: -64%
CC(C)CCSc1nnc(N)s1	inconclusive: -32.1%
COC(=O)C1CN(C(=O)COc2ccc(C)c(C)c2)c2ccccc2O1 (configuration not stated)	inconclusive: -11.4%
CC(Sc1nnc(-c2ccccc2F)n1C)C(=O)NC1CCCCC1 (configuration not stated)	inactive: -6.2%
CCOc1ccc(S(=O)(=O)NCCC(=O)NCCCSc2ccccc2)cc1	inconclusive: -26.3%
CC(C)(C)c1ccc(SCCc2ccccn2)cc1	inconclusive: 50.8%
CCOC(=O)C1(CCOc2ccccc2)CCN(Cc2ccc(OCC)c(CO)c2)CC1	inconclusive: -11.4%
Cc1cccc(C(=O)Nc2ccc3ccccc3c2)c1	inconclusive: -11.1%
CCc1ccc2[nH]c(=O)c(Cc3ccccc3)c(O)c2c1	inconclusive: -30.1%
Cc1cccc(Nc2nc(NCc3ccco3)nc(N)c2[N+](=O)[O-])c1	inconclusive: -16.4%
Cc1ccc(C(=O)Nc2cccnc2Oc2ccc(Cl)cc2)cc1	inconclusive: -91%

Compound	inhibition
O=C(Nc1cccc(S(=O)(=O)Nc2ccccc2F)c1)c1ccco1	inactive: 3.5%
CCOC(=O)n1c(=O)n(Cc2ccc(OC)cc2)c2ccccc21	inconclusive: -29.8%
COc1ccc(F)c(CN(C)CC2CCCN(CCc3ccc(F)cc3)C2)c1 (configuration not stated)	inconclusive: -27.1%
COc1ccc(CNC(=O)N2CCN(c3ccc(F)cc3)CC2)cc1	inconclusive: -0.4%
CCOc1cc(CN2CCCC(N3CCc4ccccc4C3)C2)ccc1O (configuration not stated)	inconclusive: 13.5%
Cc1n[nH]c(C)c1S(=O)(=O)N1CCCC(C(=O)NCC2COc3ccccc3O2)C1 (configuration not stated)	inconclusive: 1%
CCCCN(C)CC(O)Cn1cc(/C=C/C(=O)c2ccc(C)cc2)c2ccccc21 (configuration not stated)	inconclusive: -12.2%
Cc1ccc(OCC(=O)N2CCc3ccccc3C2)cc1	inconclusive: -4.1%
O=C(C1CC1)N1N=C(c2ccccc2)CC1(O)C(F)(F)F (configuration not stated)	inconclusive: 6.1%
CC1(C)Cc2cccc(C(=O)Nc3ccncc3)c2O1	inconclusive: -4%
CCn1c(=N)n(CCOc2ccc(OC)cc2)c2ccccc21	inconclusive: 26.5%
Nc1nccc(-c2nn(-c3ccc(Cl)cc3)ccc2=O)n1	inconclusive: -183%
N#Cc1nc(COc2cccc(Cl)c2)oc1NCCN1CCOCC1	inconclusive: -2.6%
CCOC(=O)CNC(=O)CSc1ncccc1-c1nc2ccccc2[nH]1	inconclusive: -30.5%
NS(=O)(=O)c1cnccc1NCCc1ccccc1	inconclusive: -4.1%
CC(C)(C)c1ccc(C(=O)OCC(=O)N2CCC(c3ccccc3)=N2)cc1	inconclusive: 7.3%
CCCc1nc(N)nc2c1C(=O)CC(C)(C)C2	inconclusive: -1.3%
COc1cc2c(C#N)c(N3CCOCC3)nc(N)c2c(N)n1	inactive: -3.4%
O=C(Nc1ccc(Cl)c(S(=O)(=O)N2CCOCC2)c1)c1ccc(Cl)nc1	inactive: 5.2%
NCCc1c[nH]c2ccccc12	inactive: -6.9%
CN(c1ccccc1C(=O)Nc1cccc([N+](=O)[O-])c1)S(=O)(=O)c1ccccc1	inconclusive: 3.6%

Compound	inhibition
Nc1nc(NCC2CCCO2)nc(Nc2ccccc2)c1[N+](=O)[O-] (configuration not stated)	inactive: -4.3%
COc1ccc(S(=O)(=O)N2CCC3(CC2)CC(=O)c2ccccc2O3)cc1OC	inconclusive: 2.2%
COc1cc(C(=O)NC2CC(C)(C)CC(C)(C)C2)ccc1OC1CCN(C(C)=O)CC1	inconclusive: 10.2%
COC(=O)C(c1ccccc1)C1(O)CC(C)N(C)CC1C (configuration not stated)	inconclusive: 11.2%
Fc1ccccc1-c1nc2ccccc2[nH]1	inactive: -1.7%
CCOc1cc(C(=O)NCC2CCCO2)cc(OCC)c1OCC (configuration not stated)	inactive: -4.6%
Cc1cc(C)c[n+](CC(=O)c2ccc(C)c([N+](=O)[O-])c2)c1	inconclusive: 5.2%
COc1cccc(C(=O)N2CCN(c3ccc(N4CCOCC4)nn3)CC2)c1	inconclusive: -12.2%
Cc1ccccc1NC1=NC(=S)N(CC(N)=O)C12CCOC(C)(C)C2 (configuration not stated)	active: 45.3%
CCCCCC(=O)N1CCCC1	inconclusive: 5.2%
CCOc1ccc(N/C(=N/c2nc(C)cc(C)n2)NC(C)=O)cc1	inconclusive: -4.6%
N#Cc1ccc2ccn(CC(=O)NCc3ccco3)c2c1	inconclusive: -10.5%
Cc1ccc2oc(-c3cccc(NC(=O)c4ccccn4)c3)nc2c1	inconclusive: 15.7%
COc1cc(C(=O)N2c3ccccc3CC2C)cc(OC)c1OC (configuration not stated)	inconclusive: -26.9%
CNNC(=S)Nc1ccc(Cl)cc1	inconclusive: -62%
CCOC(=O)CNc1nc(Cl)nc(N2CCCCC2)n1	inconclusive: -137%
OC(CN1CCCCCC1)CN(c1ccccc1)c1ccccc1 (configuration not stated)	inconclusive: -62.9%
Cc1cc(-c2nsc(=O)o2)c(S(C)(=O)=O)s1	inconclusive: -17.8%
COc1ccc(OC)c(-c2csc(NC(=O)CN3C(=O)C4CCCCC4C3=O)n2)c1 (configuration not stated)	inconclusive: 11%
COc1cc(CN2CCCN(C)CC2)c([N+](=O)[O-])cc1OC	inconclusive: 6.1%
